This experiment addresses platelet glycoprotein IIb/IIIa on platelets (UniProt P08514). Put plainly: flow cytometry, inhibition of fibrinogen binding to ADP-activated platelets.

By UniProt entry, the sequences of proteins in these tests, tags left out. Where a name states a change or a piece, a line headed by the entry shows the natural chain unless it says otherwise.
UniProt P08514: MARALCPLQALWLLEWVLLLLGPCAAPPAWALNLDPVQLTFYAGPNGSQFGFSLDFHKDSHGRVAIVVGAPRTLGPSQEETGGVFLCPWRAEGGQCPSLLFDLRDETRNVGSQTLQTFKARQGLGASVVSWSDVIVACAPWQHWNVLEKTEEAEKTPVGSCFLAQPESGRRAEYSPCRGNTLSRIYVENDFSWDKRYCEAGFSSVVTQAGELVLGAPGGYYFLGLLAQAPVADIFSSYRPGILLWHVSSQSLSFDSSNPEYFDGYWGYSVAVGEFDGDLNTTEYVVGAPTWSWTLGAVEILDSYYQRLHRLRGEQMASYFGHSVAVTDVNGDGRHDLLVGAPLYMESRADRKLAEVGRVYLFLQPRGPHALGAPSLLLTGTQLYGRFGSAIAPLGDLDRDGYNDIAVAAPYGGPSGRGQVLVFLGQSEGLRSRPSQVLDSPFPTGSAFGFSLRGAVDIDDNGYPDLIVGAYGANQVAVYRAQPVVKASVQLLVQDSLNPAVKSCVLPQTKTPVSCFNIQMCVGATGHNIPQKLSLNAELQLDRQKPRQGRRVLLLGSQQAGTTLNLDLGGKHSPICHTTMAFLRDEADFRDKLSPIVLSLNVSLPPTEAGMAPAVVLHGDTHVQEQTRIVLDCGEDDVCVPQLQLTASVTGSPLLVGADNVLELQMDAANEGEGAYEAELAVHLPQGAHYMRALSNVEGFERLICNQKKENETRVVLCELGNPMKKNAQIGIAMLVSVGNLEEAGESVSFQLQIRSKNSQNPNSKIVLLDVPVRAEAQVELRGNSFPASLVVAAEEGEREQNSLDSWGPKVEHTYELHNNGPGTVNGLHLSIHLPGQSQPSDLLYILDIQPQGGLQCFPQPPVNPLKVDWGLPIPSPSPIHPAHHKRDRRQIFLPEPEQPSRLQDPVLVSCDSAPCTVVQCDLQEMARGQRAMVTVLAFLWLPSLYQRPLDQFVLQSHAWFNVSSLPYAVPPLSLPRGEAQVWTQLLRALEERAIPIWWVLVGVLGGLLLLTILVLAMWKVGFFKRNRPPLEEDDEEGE

This note sets out measurements from US20070003551A1.

Results are given in words; binding and its absence hold for the method and conditions named. Some binding calls cover weakened binding; strength is not graded here.

B1: Fab-expressing phage clone S4 (Fab, V domains shown)
VH: VQLLEESGGGLVQPGGSLRLSCTASRFTLSTYEMNWVRQAPGKGLEWVSYISTSGGIMYYADSVRGRFTISRDNAKNSLYLQMNSLRAEDTALYYCATVTLDGNNPFENWGQGTLVT
VL: AAELTQSPLSLSVTLGQPASIACKSSHSLARSDGVSLMNWVHLRPGRSPRRLIYDVSKRENGVPDRFSGSGSGTDFTLEINRVEAEDVGLYYCLQYAHWPHTFGQGTKLEIKR
Take B1: the binding entry is reported as “binds”.
